In PubChem BioAssay AID2453 (Broad Institute, 2010) one finds activation data, which are given here for one compound.

This assay in a line: PubChem AID 2453. The note with it: H4 neuroglioma, luciferase reporter luminescence; at 19.5 µM (top of the series). Background: A reporter such as luciferase makes a cellular process visible.

Some of the results follow. Results with a measured potency or affinity are listed apart. Entries without a call are filed as inconclusive in the source.

Take `CN(C)c1nc(N)nc(CSc2nnnn2-c2cccc3ccccc23)n1`: the activation is -17.8%.
